Results deposited as PubChem BioAssay AID493246 (Drosophila RNAi Screening Center, 2011)

Aim: 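Genes fly cells need to grow and stay alive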 (primary screen)
System: Drosophila Kc and S2R+ cells
Reagent: long dsRNA against Drosophila genes
Measurement: 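Raw, unnormalised count of remaining cells in each well; per-plate z-scores of cell number underlie the calls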
Scale: Kc cell number and S2R+ cell number: higher = more cells remaining
Hit rule: 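Active when the per-plate z-score of cell number is 3 or more in the direction of fewer cells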
The screen tested about 21,000 reagents; this is a random part of those that have a named target and a result. Over the whole deposit, 429 (2%) were called active. 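Values are raw and not normalised between plates; calls rest on per-plate z-scores that were not deposited.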 Entries without a mark were called inactive. Reagent sequences are not shown. The record does not give: the amount of reagent, the time to read-out.

predicted target	DRSC id	Kc cell number, rep 1	Kc cell number, rep 2	S2R+ cell number, rep 1	S2R+ cell number, rep 2
pav (GeneID 38515)	DRSC08730	1.48e6	1.41e6	1.05e6	1.09e6
His4r (GeneID 41773)	DRSC16703	7.96e5 (active)	8.81e5	3.98e5	4.56e5
dve (GeneID 37546)	DRSC04680	1.61e6	1.76e6	1.36e6	5.41e5
CG33689 (GeneID 3771798)	DRSC09424	1.33e6	1.52e6	1.13e6	1.30e6
CG8195 (GeneID 36725)	DRSC07103	1.33e6	1.42e6	1.19e6	1.15e6
CG15395 (GeneID 33447)	DRSC00409	1.47e6	1.50e6	1.00e6	1.14e6
CG14882 (GeneID 41994)	DRSC15006	1.52e6	1.59e6	1.15e6	1.20e6
or (GeneID 43943)	DRSC04329	1.56e6	1.69e6	1.39e6	1.48e6
CG10011 (GeneID 43387)	DRSC14174	5.68e5		7.24e5	
Chchd3 (GeneID 43672)	DRSC16981	1.39e6	1.42e6	7.22e5	8.28e5
Rab4 (GeneID 36992)	DRSC07524	1.39e6	1.46e6	9.18e5	1.00e6
Nak (GeneID 35154)	DRSC03379	1.31e6	1.34e6	1.31e6	1.24e6
Idh3g (GeneID 43102)	DRSC15699	1.56e6	1.52e6	1.02e6	1.07e6
CG14820 (GeneID 38754)	DRSC10191	1.29e6	1.22e6	1.22e6	1.22e6

Reformatted: entries from further up
{"predicted target": "His4r (GeneID 41773)", "DRSC id": "DRSC16703", "Kc cell number, rep 1": "7.96e5 (active)", "Kc cell number, rep 2": 8.81e5, "S2R+ cell number, rep 1": 3.98e5, "S2R+ cell number, rep 2": 4.56e5}
{"predicted target": "dve (GeneID 37546)", "DRSC id": "DRSC04680", "Kc cell number, rep 1": 1.61e6, "Kc cell number, rep 2": 1.76e6, "S2R+ cell number, rep 1": 1.36e6, "S2R+ cell number, rep 2": 5.41e5}
{"predicted target": "CG33689 (GeneID 3771798)", "DRSC id": "DRSC09424", "Kc cell number, rep 1": 1.33e6, "Kc cell number, rep 2": 1.52e6, "S2R+ cell number, rep 1": 1.13e6, "S2R+ cell number, rep 2": 1.30e6}
{"predicted target": "CG8195 (GeneID 36725)", "DRSC id": "DRSC07103", "Kc cell number, rep 1": 1.33e6, "Kc cell number, rep 2": 1.42e6, "S2R+ cell number, rep 1": 1.19e6, "S2R+ cell number, rep 2": 1.15e6}

Additional reagents follow:
predicted target	DRSC id	Kc cell number, rep 1	Kc cell number, rep 2	S2R+ cell number, rep 1	S2R+ cell number, rep 2
CG7231 (GeneID 34086)	DRSC03034	1.55e6	1.59e6	1.10e6	1.26e6
ncd (GeneID 43517)	DRSC17012	5.11e5		7.11e5	
eIF4H2 (GeneID 43645)	DRSC14582	5.91e5		8.43e5	
Mst84Dc (GeneID 40887)	DRSC12599	1.63e6	1.73e6	1.22e6	1.37e6
dpr1 (GeneID 2768858)	DRSC05906	6.25e5		7.65e5	
dpr1 (GeneID 2768858)	DRSC06399	1.26e6	1.35e6	1.01e6	1.40e6
EMC6 (GeneID 42992)	DRSC14386	1.54e6	1.48e6	9.93e5	1.09e6
CG5157 (GeneID 39771)	DRSC10488	1.26e6	1.33e6	1.31e6	1.35e6
Smvt (GeneID 43744)	DRSC15426	1.65e6	1.71e6	1.04e6	1.10e6
CheA84a (GeneID 3771856)	DRSC12669	1.43e6	1.41e6	1.06e6	1.20e6
Ugt316A1 (GeneID 40079)	DRSC10376	1.46e6	1.67e6	1.25e6	1.33e6
Ir48b (GeneID 36254)	DRSC06320	1.92e6	1.84e6	1.21e6	1.43e6
CG9849 (GeneID 37647)	DRSC04573	1.71e6	1.82e6	1.43e6	1.52e6
Mccc2 (GeneID 59261)	DRSC04987	1.63e6	1.69e6	1.39e6	1.45e6
Arp8 (GeneID 32769)	DRSC20059	1.67e6	1.69e6	1.11e6	1.24e6
Rep (GeneID 37246)	DRSC07526	1.38e6	1.35e6	1.12e6	1.14e6
bsf (GeneID 35100)	DRSC02035	1.23e6	1.30e6	1.27e6	1.21e6
Srp72 (GeneID 42439)	DRSC15800	1.73e6	1.96e6	1.22e6	1.32e6
CG34204 (GeneID 5740630)	DRSC03897	5.42e5		8.44e5	
RpS2 (GeneID 34309)	DRSC03614	9.00e5	9.80e5	7.48e5	8.93e5
P5CDh1 (GeneID 40434)	DRSC11801	1.72e6	1.80e6	1.46e6	1.47e6
RpL39 (GeneID 37849)	DRSC04651	9.67e5 (active)	1.15e6	7.91e5	9.78e5
CG34334 (GeneID 5740122)	DRSC20643	1.45e6	1.48e6	1.12e6	1.25e6
CG15602 (GeneID 32533)	DRSC19671	1.53e6	1.55e6	1.07e6	1.13e6
dnk (GeneID 42273)	DRSC16933	1.25e6	1.33e6	8.87e5	9.65e5
ens (GeneID 38491)	DRSC08454	1.44e6	1.51e6	1.24e6	1.19e6
